Measured values taken from patent US20040197808A1.
Results are given in words; binding and its absence hold for the method and conditions named. For some assays here: Binding seen in cells or lysates may run through a third protein. Some entries that bind do so weakly or less than the wild type. Where a sequence is shown, tags or fusion partners need not be part of it.

What was measured:
[1] = target: T1, FLAG-tagged linker and ligand-binding regions of the EcR partner protein (USP polypeptide) of the D. melanogaster ecdysone receptor (Drosophila melanogaster) (UniProt P20153); assay: co-purification on FLAG M2 Affinity Gel
T1 sequence (looked up): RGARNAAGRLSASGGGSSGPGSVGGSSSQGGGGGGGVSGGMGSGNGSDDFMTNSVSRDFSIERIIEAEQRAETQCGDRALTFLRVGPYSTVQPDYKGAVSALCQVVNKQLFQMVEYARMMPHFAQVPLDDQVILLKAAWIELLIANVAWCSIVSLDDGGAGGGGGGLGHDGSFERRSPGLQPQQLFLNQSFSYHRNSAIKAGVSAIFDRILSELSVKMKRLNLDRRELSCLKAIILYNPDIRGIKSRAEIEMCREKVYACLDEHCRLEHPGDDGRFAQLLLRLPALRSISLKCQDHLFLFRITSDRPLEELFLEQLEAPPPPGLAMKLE

[2] = target: T1, FLAG-tagged linker and ligand-binding regions of the EcR partner protein (USP polypeptide) of the D. melanogaster ecdysone receptor (Drosophila melanogaster); assay: baculovirus co-expression in Sf21 and Sf9 cells

B1: oligo-His-tagged linker and ligand-binding regions of the EcR polypeptide of the D. melanogaster ecdysone receptor (receptor, Drosophila melanogaster, UniProt P34021 361-878, looked up, not shown: small tags and cut ends)
chain: SSQHGGNGSLASGGGQDFVKKEILDLMTCEPPQHATIPLLPDEILAKCQARNIPSLTYNQLAVIYKLIWYQDGYEQPSEEDLRRIMSQPDENESQTDVSFRHITEITILTVQLIVEFAKGLPAFTKIPQEDQITLLKACSSEVMMLRMARRYDHSSDSIFFANNRSYTRDSYKMAGMADNIEDLLHFCRQMFSMKVDNVEYALLTAIVIFSDRPGLEKAQLVEAIQSYYIDTLRIYILNRHCGDSMSLVFYAKLLSILTELRTLGNQNAEMCFSLKLKNRKLPKFLEEIWDVHAIPPSVQSHLQITQEENERLERAERMRASVGGAITAGIDCDSASTSAAAAAAQHQPQPQPQPQPSSLTQNDSQHQTQPQLQPQLPPQLQGQLQPQLQPQLQTQLQPQIQPQPQLLPVSAPVPASVTAPGSLSAVSTSSEYMGGSAAIGPITPATTSSITAAVTASSTTSAVPMGNGVGVGVGVGGNVSMYANAQTAMALMGVALHSHQEQLIGGVAVKSEHSTTA
[1]
  binding: binds
[2]
  binding: binds
